Source: PubChem BioAssay AID493014 (National Center for Advancing Translational Sciences (NCATS), 2011)
Some of the results follow. These are further read-outs of the screen, such as a control signal, another cell line or another target. No call is given for them. Compounds called inactive in the main read-out are mostly missing here. Words in brackets tell the shape of the fitted curve; partial curves, single points and poor fits give uncertain potencies.

Experiment: qHTS Assay to Find Inhibitors of Chronic Active B-Cell Receptor Signaling
Details: ABC-DLBCL IkBa-CBG/CBR reporter, luminescence ratio (green luciferase fused to IkBa over red control in TMD8 lymphoma cells), 4 h
Summary of the method: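 Cell line TMD8 (human ABC DLBCL), stably expressing tet-inducible CBG68-IkBa fusion and CBR; IMDM/0.5% FBS; cpd up to 46 uM; dox induction, 4 h, 37C/5% CO2; dual luminescence; green/red ratio; MG132 control.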

[1] = measured here: CBR red luminescence, cell number
[2] = measured here: IkBa-CBG green luminescence

Compound: Cc1cc(N2CCOCC2)ccc1/C=C\[N+](=O)[O-]
- AC50 [1]: 20.6 µM [falling, partial curve, poor fit]
- AC50 [2]: 32.6 µM [rising, partial curve, poor fit]

Compound: CCN(CC)CCOc1ccc2c(c1)C(=NO)c1cc(OCCN(CC)CC)ccc1-2
- AC50 [1]: 35.5 µM [falling, single point]

Compound: Cn1ccnc1SCC(=O)c1c[nH]c2ccccc12
- AC50 [1]: 7.94 µM [falling, partial curve]

Compound: COc1ccc(NC(=O)COc2cccc3c2CCN(C)C3=O)c(OC)c1
- AC50 [1]: 7.08 µM [falling, partial curve]

Compound: COc1ccc(C2=NN(C(C#N)c3ccc(OC)c(OC)c3)C(c3ccccc3)C2)cc1 (centres undefined)
- AC50 [1]: 6.51 µM [rising, single point]

Compound: CCS(=O)(=O)n1nc(-c2ccco2)nc1N
- AC50 [1]: 35.5 µM [rising, partial curve, poor fit]

Compound: C=CCOc1ccc(C2c3c(oc4ccccc4c3=O)C(=O)N2CCCN2CCOCC2)cc1 (centres undefined)
- AC50 [1]: 11.2 µM [rising, partial curve, poor fit]

Compound: O=C(CCCN1C(=O)S/C(=C\C=C\c2ccccc2)C1=O)Nc1ccc(O)cc1
- AC50 [1]: 0.447 µM [falling, full curve]

Compound: COc1ccc(Nc2ncnc3sc(-c4ccccc4)cc23)cc1
- AC50 [1]: 15.8 µM [falling, single point]

Compound: COC(=O)c1sccc1N/N=C/c1ccc(OC)c(OC)c1OC
- AC50 [1]: 0.411 µM [falling, full curve]

Compound: COC(=O)c1cccc(Cn2c(Cl)c(/C=N/Nc3ccccc3C)sc2=O)c1
- AC50 [1]: 25.9 µM [falling, single point]

Compound: NC(=S)N1OC[C@@H]2COc3ccc4ccccc4c3[C@@H]21
- AC50 [2]: 35.5 µM [rising, partial curve, poor fit]

Compound: Cn1cc(C(=O)N2CCCC(Nc3ccc(F)cc3)C2)c2ccccc21 (centres undefined)
- AC50 [1]: 28.2 µM [falling, single point]

Compound: C(=C1/CCCC2=C1Nc1ncnn1C2c1ccccc1)/c1ccccc1 (centres undefined)
- AC50 [1]: 15.8 µM [falling, partial curve, poor fit]

Compound: Cc1nc(N)sc1-c1nnc(SCC(=O)Nc2nccs2)n1C
- AC50 [1]: 7.08 µM [falling, partial curve, poor fit]

Compound: Cn1cncc1C(=O)c1ccccc1
- AC50 [2]: 35.5 µM [rising, partial curve, poor fit]

Compound: COC(=O)c1sc2cnccc2c1N
- AC50 [1]: 7.31 µM [falling, partial curve, poor fit]

Compound: COc1ccccc1-n1c(SCC(=O)c2ccc(O)cc2O)nc2cc([N+](=O)[O-])ccc21
- AC50 [1]: 20.6 µM [falling, single point]
